Source: paper PMC6322577

Key:
[1] = target: T1, PevD1-HA (Verticillium dahliae) (UniProt G2WWV6); assay: pull-down; PevD1 mixed with concentrated protein extract (50 mM Tris, 200 mM NaCl, 1% Triton X-100, pH 8.0) of leaves or roots of cotton 4 d after inoculation with V. dahliae, 2 h at 4 °C, Anti-HA Affinity Gel beads; SDS-PAGE, band identified by mass spectrometry; only the target purified
T1 sequence: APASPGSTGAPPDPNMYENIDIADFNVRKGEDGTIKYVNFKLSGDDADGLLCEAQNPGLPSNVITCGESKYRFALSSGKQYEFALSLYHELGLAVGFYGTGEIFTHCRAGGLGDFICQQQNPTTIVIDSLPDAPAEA

[2] = target: T1, PevD1-HA (Verticillium dahliae); assay: pull-down; two recombinant proteins mixed, 2 h at 4 °C, Anti-HA Affinity Gel beads, washed five times, eluted, western blot; both purified
[3] = target: T2, PevD1b (Verticillium dahliae) (UniProt G2WWV6); assay: as above
T2 sequence: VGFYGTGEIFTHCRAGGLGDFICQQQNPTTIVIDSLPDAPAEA

[4] = target: T3, BD-PevD1 (Verticillium dahliae) (UniProt G2WWV6); assay: two-hybrid; Matchmaker Gold Yeast Two-Hybrid; bait pGBKT7, prey pGADT7; growth on SD/–Trp/–Leu/–His/–Ade (QDO)
T3 sequence: T1 sequence

[5] = target: T4, BD-PevD1b (Verticillium dahliae) (UniProt G2WWV6); assay: as above
T4 sequence: T2 sequence

“Gossypium hirsutum pathogenesis-related protein 5 (GhPR5), endogenous” was tested, and the binding [1] was “binds”.

For GhPR5-His (Gossypium hirsutum), the binding [2] was “binds” and the binding [3] was “binds”.

With AD-GhPR5 (Gossypium hirsutum) the binding [4] was “binds” and the binding [5] was “binds”.

Results are given in words; binding and its absence hold for the method and conditions named. Binding calls can cover weak binding; strength is not graded here. For some assays here: Tags and fused reporters may be left off the sequences shown. For some assays here: Binding seen in cells or lysates may run through a third protein.
